Data taken from PMC9943860.
No constants are given. Whether binding was seen depends on the method and setting. Binding seen in cells or lysates may run through a third protein. Sequences can lack the tags named with a protein.

Protein sequences, listed by entry. Tags and fused reporters are not part of them. Lines headed by an entry give the natural chain unless they say otherwise; changes in a name come on top.
UniProt P29466: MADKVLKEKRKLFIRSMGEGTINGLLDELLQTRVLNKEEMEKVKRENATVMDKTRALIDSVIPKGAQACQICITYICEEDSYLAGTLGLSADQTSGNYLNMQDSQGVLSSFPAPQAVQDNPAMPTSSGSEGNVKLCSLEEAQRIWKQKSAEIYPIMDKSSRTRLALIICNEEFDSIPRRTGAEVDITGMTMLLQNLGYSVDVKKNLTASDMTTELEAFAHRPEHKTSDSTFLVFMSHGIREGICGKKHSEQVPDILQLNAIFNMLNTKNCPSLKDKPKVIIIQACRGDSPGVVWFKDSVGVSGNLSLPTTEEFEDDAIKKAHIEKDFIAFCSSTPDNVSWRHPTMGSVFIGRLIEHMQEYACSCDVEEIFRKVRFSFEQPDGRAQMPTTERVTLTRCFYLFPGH

Target: T1, wildtype GSDMA with a C-terminal FLAG tag (UniProt Q96QA5)
T1 sequence: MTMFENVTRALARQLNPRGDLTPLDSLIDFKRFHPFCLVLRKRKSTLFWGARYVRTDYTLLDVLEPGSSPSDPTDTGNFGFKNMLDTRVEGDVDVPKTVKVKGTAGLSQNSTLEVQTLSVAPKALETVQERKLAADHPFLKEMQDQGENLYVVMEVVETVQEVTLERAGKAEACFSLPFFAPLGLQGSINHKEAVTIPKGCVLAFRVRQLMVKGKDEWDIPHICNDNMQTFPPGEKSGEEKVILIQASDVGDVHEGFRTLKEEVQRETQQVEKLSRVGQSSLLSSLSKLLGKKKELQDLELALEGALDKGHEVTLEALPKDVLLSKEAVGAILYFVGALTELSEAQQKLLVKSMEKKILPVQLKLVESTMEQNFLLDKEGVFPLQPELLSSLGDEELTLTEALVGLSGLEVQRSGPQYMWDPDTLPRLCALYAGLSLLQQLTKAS
Experiment: co-IP; HEK293T cotransfected with FLAG-tagged gasdermin and caspase-1 C285A; about 16 h after transfection lysed in Triton lysis buffer (150 mM NaCl, 50 mM Tris pH 7.4, 1% Triton X-100); Anti-FLAG M2 Affinity gel overnight; washed three times; blotted for caspase-1

In the case of “catalytic dead caspase-1 (Caspase-1 C285A) (from UniProt P29466 1-404) (enzyme)”, the binding is reported as “no binding”.
